# Paper PMC5717261
# Results are given in words; binding and its absence hold for the method and conditions named. Tags and fused reporters may be left off the sequences shown.
# Key:
# [1] = biological target: T1, Recombinant human bone morphogenetic protein-1 (BMP-1) with a C-terminal FLAG tag (human) (UniProt P13497); assay: SPR; single injections over immobilised BMP-1 (2,300 RU) or mTLL-1 (1,120 or 310 RU): C1q CLR, C1q GR and MBL CRD at 500 nM; wt MBL, K55A and K55E at 16 nM; 50 mM triethanolamine-HCl, 145 mM NaCl, 2 mM CaCl2, 0.005% P20, pH 7.4; both purified
# T1 sequence: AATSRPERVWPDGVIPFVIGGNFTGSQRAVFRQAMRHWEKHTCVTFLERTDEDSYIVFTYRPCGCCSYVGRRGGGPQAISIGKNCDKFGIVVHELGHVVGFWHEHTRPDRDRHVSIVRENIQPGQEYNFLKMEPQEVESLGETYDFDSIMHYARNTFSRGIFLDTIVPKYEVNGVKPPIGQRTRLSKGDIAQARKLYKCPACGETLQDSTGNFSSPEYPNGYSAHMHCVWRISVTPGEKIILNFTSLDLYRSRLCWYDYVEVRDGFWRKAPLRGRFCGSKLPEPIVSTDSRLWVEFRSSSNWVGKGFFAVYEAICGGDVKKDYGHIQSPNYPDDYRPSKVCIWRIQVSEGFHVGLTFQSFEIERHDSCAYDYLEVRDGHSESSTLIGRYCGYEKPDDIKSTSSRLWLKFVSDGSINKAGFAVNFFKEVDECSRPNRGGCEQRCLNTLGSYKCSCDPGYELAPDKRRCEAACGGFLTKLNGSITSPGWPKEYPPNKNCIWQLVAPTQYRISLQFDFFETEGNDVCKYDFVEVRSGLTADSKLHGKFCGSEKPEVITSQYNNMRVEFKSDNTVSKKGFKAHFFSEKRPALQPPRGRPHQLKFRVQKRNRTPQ
# [2] = biological target: T2, Recombinant human mammalian tolloid-like-1 (mTLL-1) with a C-terminal 6x-His tag (human) (UniProt O43897); assay: as above
# T2 sequence: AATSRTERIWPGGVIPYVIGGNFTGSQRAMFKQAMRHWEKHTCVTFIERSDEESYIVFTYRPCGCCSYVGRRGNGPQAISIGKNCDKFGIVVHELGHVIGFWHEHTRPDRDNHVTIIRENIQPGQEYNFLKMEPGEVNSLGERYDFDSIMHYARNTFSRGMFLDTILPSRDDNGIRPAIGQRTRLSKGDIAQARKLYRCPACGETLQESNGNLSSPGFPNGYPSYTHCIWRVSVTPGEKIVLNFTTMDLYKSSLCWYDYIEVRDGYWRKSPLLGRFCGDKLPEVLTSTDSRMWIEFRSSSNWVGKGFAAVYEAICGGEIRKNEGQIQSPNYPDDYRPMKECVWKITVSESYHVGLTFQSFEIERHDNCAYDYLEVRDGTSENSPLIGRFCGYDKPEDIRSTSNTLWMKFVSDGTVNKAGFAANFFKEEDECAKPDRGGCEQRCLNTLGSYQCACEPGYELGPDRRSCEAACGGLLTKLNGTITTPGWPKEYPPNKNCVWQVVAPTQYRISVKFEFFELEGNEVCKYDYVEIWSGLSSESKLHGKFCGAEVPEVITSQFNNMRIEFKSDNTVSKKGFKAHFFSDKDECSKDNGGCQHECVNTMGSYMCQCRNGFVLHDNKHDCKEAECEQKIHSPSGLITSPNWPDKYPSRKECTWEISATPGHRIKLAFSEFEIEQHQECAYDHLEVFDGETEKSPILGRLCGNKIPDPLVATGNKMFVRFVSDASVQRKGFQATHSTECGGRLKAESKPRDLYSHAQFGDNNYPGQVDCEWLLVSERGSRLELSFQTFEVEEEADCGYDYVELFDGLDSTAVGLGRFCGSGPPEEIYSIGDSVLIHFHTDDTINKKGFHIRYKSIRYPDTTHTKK
substance,measurement,setting,value
recombinant trimeric carbohydrate recognition domain of MBL (CRD) (human) (domain or fragment),binding,[1],no binding (tested: 500 nM)
same,binding,[2],no binding (tested: 500 nM)
